Reference: patent US7851493B2, “Phenyl-1,2,4-oxadiazolone derivatives with phenyl group, processes for their preparation and their use as pharmaceuticals” (Sanofi-Aventis, priority 2005, dated 2010)
Some results were stated once for a whole list of compounds, not compound by compound.

Biological target: T1, human PPARalpha (Homo sapiens, UniProt Q07869)
T1 construct: amino acids S167-Y468; expressed in transfected cells; plasmid pcDNA3
T1 sequence (Q07869 167-468): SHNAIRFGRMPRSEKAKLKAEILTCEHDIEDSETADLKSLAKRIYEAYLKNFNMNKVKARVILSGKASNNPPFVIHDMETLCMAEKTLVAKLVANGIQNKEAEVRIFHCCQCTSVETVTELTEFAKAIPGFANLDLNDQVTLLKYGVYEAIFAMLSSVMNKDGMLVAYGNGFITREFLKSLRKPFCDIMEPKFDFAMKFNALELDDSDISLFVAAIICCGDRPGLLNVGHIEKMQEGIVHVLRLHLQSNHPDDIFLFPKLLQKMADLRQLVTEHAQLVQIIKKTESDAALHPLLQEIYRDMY
Assay: Cellular PPARalpha assay (human GAL4 luciferase reporter, stably transfected HEK cell line)
Type: cell-based
Conditions: range over the examples; units printed in the value (nM to μM)
Protocol: Determination of EC50 Values of PPAR Agonists in the Cellular PPARalpha Assay
The potency of substances which bind to human PPARalpha and activate it in an agonistic manner is analyzed using a stably transfected HEK cell line (HEK=human embryo kidney) which is referred to here as PPARalpha reporter cell line. It contains two genetic elements, a luciferase reporter element (pdeltaM-GAL4-Luc-Zeo) and a PPARalpha fusion protein (GR-GAL4-humanPPARalpha-LBD) which mediates expression of the luciferase reporter element depending on a PPARalpha ligand. The stably and constitutively expressed fusion protein GR-GAL4-humanPPARalpha-LBD binds in the cell nucleus of the PPARalpha reporter cell line via the GAL4 protein portion to the GAL4 DNA binding motifs 5′-upstream of the luciferase reporter element which is stably integrated in the genome of the cell line. There is only weak expression of the luciferase reporter gene in the absence of a PPARalpha ligand if fatty acid-depleted fetal calf serum (cs-FCS) is used in the assay. PPARalpha ligands bind and activate the PPARalpha fusion protein and thereby stimulate the expression of the luciferase reporter gene. The luciferase which is formed can be detected by means of chemiluminescence via an appropriate substrate.
Construction of the PPARalpha Reporter Cell Line
The PPARalpha reporter cell line was prepared in two stages. Firstly, the luciferase reporter element was constructed and stably transfected into HEK cells. For this purpose, five binding sites of the yeast transcription factor GAL4 (Accession #AF264724) were cloned in 5′-upstream of a 68 bp-long minimal MMTV promoter (Accession #V01175). The minimal MMTV promoter section contains a […] and a TATA element in order to enable efficient transcription by RNA polymerase II. The cloning and sequencing of the GAL4-MMTV construct took place in analogy to the description of Sambrook J. et al. (Molecular cloning, Cold Spring Harbor Laboratory Press, 1989). Then the complete Photinus pyralis gene (Accession #15077) was cloned in 3′-downstream of the GAL4-MMTV element. After sequencing, the luciferase reporter element consisting of five GAL4 binding sites, MMTV promoter and luciferase gene was recloned into a plasmid which confers zeocin resistance in order to obtain the plasmid pdeltaM-GAL4-Luc-Zeo. This vector was transfected into HEK cells in accordance with the statements in Ausubel, F. M. et al. (Current protocols in molecular biology, Vol. 1-3, John Wiley & Sons, Inc., 1995).
In a second step, the PPARalpha fusion protein (GR-GAL4-humanPPARalpha-LBD was introduced into the stable cell clone described. For this purpose, initially the cDNA coding for the N-terminal 76 amino acids of the glucocorticoid receptor (Accession #P04150) was linked to the cDNA section coding for amino acids 1-147 of the yeast transcription factor GAL4 (Accession #P04386). The cDNA of the ligand-binding domain of the human PPARalpha receptor (amino acids S167-Y468; Accession #S74349) was cloned in at the 3′-end of this GR-GAL4 construct. The fusion construct prepared in this way (GR-GAL4-humanPPARalpha-LBD) was recloned into the plasmid pcDNA3 (Invitrogen) in order to enable constitutive expression therein by the cytomegalovirus promoter. This plasmid was linearized with a restriction endonuclease and stably transfected into the previously described cell clone containing the luciferase reporter element. The finished PPARalpha reporter cell line which contains a luciferase reporter element and constitutively expresses the PPARalpha fusion protein (GR-GAL4-human PPARalpha-LBD) was isolated by selection with zeocin (0.5 mg/ml) and G418 (0.5 mg/ml).
The activity of PPARalpha agonists is determined in a 3-day assay, which is described below: […]

SMILES | EC50 [nM]
COc1cc(OCc2sc(-c3ccc(C(F)(F)F)cc3)nc2CN2CCCC2)ccc1-c1noc(=O)[nH]1 [Example 6, 3-{2-Methoxy-4-[4-pyrrolidin-1-ylmethyl-2-(4-trifluoromethyl-phenyl)-thiazol-5-ylmethoxy]-phenyl}-4H-[1,2,4]oxadiazol-5-one] | ≥ 5
O=c1[nH]c(-c2ccc(OCc3sc(-c4ccc(C(F)(F)F)cc4)nc3CN3CCCC3)cc2F)no1 [Example 35, 3-{2-Fluoro-4-[4-pyrrolidin-1-ylmethyl-2-(4-trifluoromethyl-phenyl)-thiazol-5-ylmethoxy]-phenyl}-4H-[1,2,4]oxadiazol-5-one] | ≥ 5
COc1cc(OCc2sc(-c3ccc(C(F)(F)F)cc3)nc2CNC2CCC2)ccc1-c1noc(=O)[nH]1 [Example 41, 3-{4-[4-Cyclobutylaminomethyl-2-(4-trifluoromethyl-phenyl)-thiazol-5-ylmethoxy]-2-methoxy-phenyl}-4H-[1,2,4]oxadiazol-5-one] | ≥ 5
COc1cc(OCc2sc(-c3ccc(C(F)(F)F)cc3)nc2CS(C)(=O)=O)ccc1-c1noc(=O)[nH]1 [Example 91, 3-{4-[4-Methanesulfonylmethyl-2-(4-trifluoromethyl-phenyl)-thiazol-5-ylmethoxy]-2-methoxy-phenyl}-4H-1,2,4-oxadiazol-5-one] | ≥ 5
CC(=O)NCc1nc(-c2ccc(C(F)(F)F)cc2)sc1COc1ccc(-c2noc(=O)[nH]2)c(F)c1 [Example 93, N-[5-[3-Fluoro-4-(5-oxo-4,5-dihydro-1,2,4-oxadiazol-3-yl)-phenoxymethyl]-2-(4-trifluoromethyl-phenyl)-thiazol-4-ylmethyl]-acetamide] | ≥ 5
CCCCc1nc(-c2ccc(C(F)(F)F)cc2)sc1COc1ccc(-c2noc(=O)[nH]2)c(C)n1 [Example 100, 3-{6-[4-Butyl-2-(4-trifluoromethyl-phenyl)-thiazol-5-ylmethoxy]-2-methyl-pyridin-3-yl}-4H-[1,2,4]oxadiazol-5-one] | ≥ 5
COc1cc(OCc2sc(-c3ccc(C(F)(F)F)cc3)nc2CN(CCO)CCO)ccc1-c1noc(=O)[nH]1 [Example 43, 3-{4-[4-{[Bis-(2-hydroxy-ethyl)-amino]-methyl}-2-(4-trifluoromethyl-phenyl)-thiazol-5-ylmethoxy]-2-methoxy-phenyl}-4H-[1,2,4]oxadiazol-5-one] | ≥ 5
COc1cc(OCc2sc(-c3ccc(C(F)(F)F)cc3)nc2CN2CCOCC2)ccc1-c1noc(=O)[nH]1 [Example 3, 3-{2-Methoxy-4-[4-morpholin-4-ylmethyl-2-(4-trifluoromethyl-phenyl)-thiazol-5-ylmethoxy]-phenyl}-4H-[1,2,4]oxadiazol-5-one] | ≥ 5
Cc1cc(OCc2sc(-c3ccc(C(F)(F)F)cc3)nc2CNCCN2CCCC2)ccc1-c1noc(=O)[nH]1 [Example 50, 3-{2-Methyl-4-[4-[(2-pyrrolidin-1-yl-ethylamino)-methyl]-2-(4-trifluoromethyl-phenyl)-thiazol-5-ylmethoxy]-phenyl}-4H-[1,2,4]oxadiazol-5-one] | ≥ 5
O=c1[nH]c(-c2ccc(OCc3sc(-c4ccc(C(F)(F)F)cc4)nc3CCCN3CCOCC3)cc2F)no1 [Example 109, 3-{2-Fluoro-4-[4-(3-morpholin-4-yl-propyl)-2-(4-trifluoromethyl-phenyl)-thiazol-5-ylmethoxy]-phenyl}-4H-1,2,4-oxadiazol-5-one] | ≥ 5
CCN(CCOC)Cc1nc(-c2ccc(C(F)(F)F)cc2)sc1COc1ccc(-c2noc(=O)[nH]2)c(OC)c1 [Example 10, 3-{4-[4-{[Ethyl-(2-methoxy-ethyl)-amino]-methyl}-2-(4-trifluoromethyl-phenyl)-thiazol-5-ylmethoxy]-2-methoxy-phenyl}-4H-[1,2,4]oxadiazol-5-one] | ≥ 5
COc1cc(OCc2sc(-c3ccc(C(F)(F)F)cc3)nc2CNC[C@H]2CCCO2)ccc1-c1noc(=O)[nH]1 [Example 39, 3-{2-Methoxy-4-[4-({[(R)-1-(tetrahydro-furan-2-yl)methyl]-amino}-methyl)-2-(4-trifluoromethyl-phenyl)-thiazol-5-ylmethoxy]-phenyl}-4H-[1,2,4]oxadiazol-5-one] | ≥ 5
O=C1CN(Cc2nc(-c3ccc(C(F)(F)F)cc3)sc2COc2ccc(-c3noc(=O)[nH]3)c(F)c2)CCN1 [Example 27, 4-[5-[3-Fluoro-4-(5-oxo-4,5-dihydro-[1,2,4]oxadiazol-3-yl)-phenoxymethyl]-2-(4-trifluoromethyl-phenyl)-thiazol-4-ylmethyl]-piperazin-2-one] | ≥ 5
COc1cc(OCc2sc(-c3ccc(C(F)(F)F)cc3)nc2CN2CCC(C(F)(F)F)CC2)ccc1-c1noc(=O)[nH]1 [Example 1, 3-{2-Methoxy-4-[2-(4-trifluoromethyl-phenyl)-4-(4-trifluoromethyl-piperidin-1-ylmethyl)-thiazol-5-ylmethoxy]-phenyl}-4H-[1,2,4]oxadiazol-5-one] | ≥ 5
O=c1[nH]c(-c2ccc(OCc3sc(-c4ccc(C(F)(F)F)cc4)nc3CN3CCCC3)cc2Cl)no1 [Example 78, 3-{2-Chloro-4-[4-pyrrolidin-1-ylmethyl-2-(4-trifluoromethyl-phenyl)-thiazol-5-ylmethoxy]-phenyl}-4H-[1,2,4]oxadiazol-5-one] | ≥ 5
COc1cc(OCc2sc(-c3ccc(C(F)(F)F)cc3)nc2CN2CCC3(CC2)OCCO3)ccc1-c1noc(=O)[nH]1 [Example 86, 3-{4-[4-(1,4-Dioxa-8-aza-spiro[4.5]dec-8-ylmethyl)-2-(4-trifluoromethyl-phenyl)-thiazol-5-ylmethoxy]-2-methoxy-phenyl}-4H-1,2,4-oxadiazol-5-one] | ≥ 5
Cc1cc(OCc2sc(-c3ccc(C(F)(F)F)cc3)nc2CNCCN2CCCCC2)ccc1-c1noc(=O)[nH]1 [Example 52, 3-{2-Methyl-4-[4-[(2-piperidin-1-yl-ethylamino)-methyl]-2-(4-trifluoromethyl-phenyl)-thiazol-5-ylmethoxy]-phenyl}-4H-[1,2,4]oxadiazol-5-one] | ≥ 5
COc1cc(OCc2sc(-c3ccc(C(F)(F)F)cc3)nc2CN2CCC(OC)CC2)ccc1-c1noc(=O)[nH]1 [Example 12, 3-{2-Methoxy-4-[4-(4-methoxy-piperidin-1-ylmethyl)-2-(4-trifluoromethyl-phenyl)-thiazol-5-ylmethoxy]-phenyl}-4H-[1,2,4]oxadiazol-5-one] | ≥ 5
COCCN(CCOC)Cc1nc(-c2ccc(OC)cc2)oc1COc1ccc(-c2noc(=O)[nH]2)c(Cl)c1 [Example 72, 3-{4-[4-{[Bis-(2-methoxy-ethyl)-amino]-methyl}-2-(4-methoxy-phenyl)-oxazol-5-ylmethoxy]-2-chloro-phenyl}-4H-[1,2,4]oxadiazol-5-one] | ≥ 5
O=c1[nH]c(-c2ccc(OCc3sc(-c4ccc(C(F)(F)F)cc4)nc3CN3CCN(c4ccccc4)CC3)cc2Cl)no1 [Example 81, 3-{2-Chloro-4-[4-(4-phenyl-piperazin-1-ylmethyl)-2-(4-trifluoromethyl-phenyl)-thiazol-5-ylmethoxy]-phenyl}-4H-[1,2,4]oxadiazol-5-one] | ≥ 5
CCN1CCN(Cc2nc(-c3ccc(C(F)(F)F)cc3)sc2COc2ccc(-c3noc(=O)[nH]3)c(OC)c2)CC1 [Example 13, 3-{4-[4-(4-Ethyl-piperazin-1-ylmethyl)-2-(4-trifluoromethyl-phenyl)-thiazol-5-ylmethoxy]-2-methoxy-phenyl}-4H-[1,2,4]oxadiazol-5-one] | ≥ 5
